From US8188002B2, “3-amino-2-nitro-substituted benzoyl derivatives and use thereof as herbicides” (Bayer Cropscience AG, priority 2009, dated 2012)
Some entries share one result that the patent states for a list of compounds.

Assays:
Type in all cases: in vivo
Abuthilon theophrasti [1] = test: Post-emergence herbicidal action against harmful plants; settings: application rate 80 g/ha, visual rating after about 3 weeks vs untreated controls
Echinocloa crus galli [2] = test: as above; settings: application rate 80 g/ha, visual rating after about 3 weeks vs untreated controls
Echinocloa crus galli [3] = test: Pre-emergence herbicidal action against harmful plants; settings: application rate 320 g/ha, visual assessment after 3 weeks vs untreated controls
Abuthilon theophrasti [4] = test: as above; settings: application rate 320 g/ha, visual assessment after 3 weeks vs untreated controls

SMILES	herbicidal activity in percent (Abuthilon theophrasti [1])	herbicidal activity in percent (Echinocloa crus galli [2])	herbicidal activity in percent (Echinocloa crus galli [3])	herbicidal activity in percent (Abuthilon theophrasti [4])
CN(C)c1c(Br)ccc(C(=O)C2C(=O)CCC(C)(C)C2=O)c1[N+](=O)[O-] (stereo not shown) [3-17]	at least 80%	at least 80%	at least 90%	at least 90%
CCCNc1c(Br)ccc(C(=O)C2C(=O)CCC(C)(C)C2=O)c1[N+](=O)[O-] (stereo not shown) [3-19]	at least 80%	at least 80%		
Nc1c(Br)ccc(C(=O)C2C(=O)C3CCC(C3)C2=O)c1[N+](=O)[O-] (stereo not shown) [4-15]	at least 80%	at least 80%	at least 90%	at least 90%
CC(C)CNc1c(Br)ccc(C(=O)C2C(=O)C3CCC(C3)C2=O)c1[N+](=O)[O-] (stereo not shown) [4-21]			at least 90%	at least 90%
CNc1c(Cl)ccc(C(=O)C2C(=O)C(C)(C)C(=O)C(C)(C)C2=O)c1[N+](=O)[O-] [5-2]			at least 90%	at least 90%
CC(C)CNc1c(Cl)ccc(C(=O)C2C(=O)CCCC2=O)c1[N+](=O)[O-] [1-7]	at least 80%	at least 80%	at least 90%	at least 90%
CCCNc1c(Br)ccc(C(=O)C2C(=O)C3CCC(C3)C2=O)c1[N+](=O)[O-] (stereo not shown) [4-19]			at least 90%	at least 90%
CN(C)c1c(Cl)ccc(C(=O)C2C(=O)C3CCC(C3)C2=O)c1[N+](=O)[O-] (stereo not shown) [4-3]	at least 80%	at least 80%	at least 90%	at least 90%
CS(=O)(=O)c1ccc(C(=O)C2C(=O)C3CCC(C3)C2=O)c([N+](=O)[O-])c1N (stereo not shown) [4-43]	at least 80%	at least 80%	at least 90%	at least 90%
CCNc1c(Br)ccc(C(=O)C2C(=O)CCCC2=O)c1[N+](=O)[O-] [1-18]	at least 80%	at least 80%	at least 90%	at least 90%
O=C1CCCC(=O)C1C(=O)c1ccc(Cl)c(NCC2CC2)c1[N+](=O)[O-] [1-8]	at least 80%	at least 80%	at least 90%	at least 90%
CC1(C)CCC(=O)C(C(=O)c2ccc(S(C)(=O)=O)c(N)c2[N+](=O)[O-])C1=O (stereo not shown) [3-43]	at least 80%	at least 80%	at least 90%	at least 90%
CCCCNc1c(Br)ccc(C(=O)C2C(=O)C3CCC(C3)C2=O)c1[N+](=O)[O-] (stereo not shown) [4-20]	at least 80%	at least 80%		
CNc1c(Br)ccc(C(=O)C2C(=O)CCCC2=O)c1[N+](=O)[O-] [1-16]			at least 90%	at least 90%
CC1CC(=O)C(C(=O)c2ccc(Cl)c(NCC3CC3)c2[N+](=O)[O-])C(=O)C1 (stereo not shown) [2-8]	at least 80%	at least 80%		
CN(C)c1c(S(C)(=O)=O)ccc(C(=O)C2C(=O)C3CCC(C3)C2=O)c1[N+](=O)[O-] (stereo not shown) [4-45]	at least 80%	at least 80%	at least 90%	at least 90%
CC1(C)CCC(=O)C(C(=O)c2ccc(Cl)c(N)c2[N+](=O)[O-])C1=O (stereo not shown) [3-1]	at least 80%	at least 80%	at least 90%	at least 90%
CNc1c(Br)ccc(C(=O)C2C(=O)CCC(C)(C)C2=O)c1[N+](=O)[O-] (stereo not shown) [3-16]	at least 80%	at least 80%	at least 90%	at least 90%
CCCNc1c(Cl)ccc(C(=O)C2C(=O)CCC(C)(C)C2=O)c1[N+](=O)[O-] (stereo not shown) [3-5]	at least 80%	at least 80%	at least 90%	at least 90%
Nc1c(Cl)ccc(C(=O)C2C(=O)C3CCC(C3)C2=O)c1[N+](=O)[O-] (stereo not shown) [4-1]	at least 80%	at least 80%	at least 90%	at least 90%
CN(C)c1c(Cl)ccc(C(=O)C2C(=O)C(C)(C)C(=O)C(C)(C)C2=O)c1[N+](=O)[O-] [5-3]	at least 80%	at least 80%	at least 90%	at least 90%

SMILES	herbicidal activity in percent (Abuthilon theophrasti [1])	herbicidal activity in percent (Echinocloa crus galli [2])	herbicidal activity in percent (Echinocloa crus galli [3])	herbicidal activity in percent (Abuthilon theophrasti [4])
CC1(C)CCC(=O)C(C(=O)c2ccc(Br)c(N)c2[N+](=O)[O-])C1=O (stereo not shown) [3-15]	at least 80%	at least 80%	at least 90%	at least 90%
CNc1c(S(C)(=O)=O)ccc(C(=O)C2C(=O)CCC(C)(C)C2=O)c1[N+](=O)[O-] (stereo not shown) [3-44]			at least 90%	at least 90%
Nc1c(Cl)ccc(C(=O)C2C(=O)CCCC2=O)c1[N+](=O)[O-] [1-1]	at least 80%	at least 80%	at least 90%	at least 90%
CN(C)c1c(Br)ccc(C(=O)C2C(=O)C3CCC(C3)C2=O)c1[N+](=O)[O-] (stereo not shown) [4-17]	at least 80%	at least 80%	at least 90%	at least 90%
CC1CC(=O)C(C(=O)c2ccc(Br)c(N)c2[N+](=O)[O-])C(=O)C1 (stereo not shown) [2-15]	at least 80%	at least 80%		
CCNc1c(Cl)ccc(C(=O)C2C(=O)CCCC2=O)c1[N+](=O)[O-] [1-4]	at least 80%	at least 80%	at least 90%	at least 90%
CCCNc1c(Cl)ccc(C(=O)C2C(=O)C3CCC(C3)C2=O)c1[N+](=O)[O-] (stereo not shown) [4-5]	at least 80%	at least 80%	at least 90%	at least 90%
CC(C)(C)CNc1c(Cl)ccc(C(=O)C2C(=O)CCCC2=O)c1[N+](=O)[O-] [1-9]			at least 90%	at least 90%
CCNc1c(Cl)ccc(C(=O)C2C(=O)C3CCC(C3)C2=O)c1[N+](=O)[O-] (stereo not shown) [4-4]	at least 80%	at least 80%	at least 90%	at least 90%
CCCCNc1c(Cl)ccc(C(=O)C2C(=O)CC(C)CC2=O)c1[N+](=O)[O-] (stereo not shown) [2-6]	at least 80%	at least 80%		
Nc1c(Br)ccc(C(=O)C2C(=O)CCCC2=O)c1[N+](=O)[O-] [1-15]	at least 80%	at least 80%	at least 90%	at least 90%
CN(C)c1c(Cl)ccc(C(=O)C2C(=O)CCCC2=O)c1[N+](=O)[O-] [1-3]	at least 80%	at least 80%	at least 90%	at least 90%
CN(C)c1c(Br)ccc(C(=O)C2C(=O)CCCC2=O)c1[N+](=O)[O-] [1-17]	at least 80%	at least 80%	at least 90%	at least 90%
CCCCNc1c(Cl)ccc(C(=O)C2C(=O)C3CCC(C3)C2=O)c1[N+](=O)[O-] (stereo not shown) [4-6]	at least 80%	at least 80%		
CC1CC(=O)C(C(=O)c2ccc(Cl)c(N)c2[N+](=O)[O-])C(=O)C1 (stereo not shown) [2-1]	at least 80%	at least 80%	at least 90%	at least 90%
CNc1c(Cl)ccc(C(=O)C2C(=O)CCC(C)(C)C2=O)c1[N+](=O)[O-] (stereo not shown) [3-2]	at least 80%	at least 80%	at least 90%	at least 90%
CCCNc1c(Br)ccc(C(=O)C2C(=O)CCCC2=O)c1[N+](=O)[O-] [1-19]	at least 80%	at least 80%	at least 90%	at least 90%
CNc1c(Cl)ccc(C(=O)C2C(=O)C3CCC(C3)C2=O)c1[N+](=O)[O-] (stereo not shown) [4-2]			at least 90%	at least 90%
CNc1c(Br)ccc(C(=O)C2C(=O)C3CCC(C3)C2=O)c1[N+](=O)[O-] (stereo not shown) [4-16]			at least 90%	at least 90%
CCNc1c(Br)ccc(C(=O)C2C(=O)C3CCC(C3)C2=O)c1[N+](=O)[O-] (stereo not shown) [4-18]	at least 80%	at least 80%		
CCNc1c(Br)ccc(C(=O)C2C(=O)CCC(C)(C)C2=O)c1[N+](=O)[O-] (stereo not shown) [3-18]	at least 80%	at least 80%		
